# Assay results from PubChem BioAssay AID624297 (National Center for Advancing Translational Sciences (NCATS), 2012).
# “And” between values parts separate entries of the source, which are not always exact repeats. Equal values may be shown once. Hit rate of the full screen: of about 340,000 compounds, about 6,200 (1.8%) were called active. Inconclusive means that the source gave no clear call. Such entries were picked first, then a sample of the others. The call rests on the fitted dose curve; in most records, active means well fitted activation curve with a large enough effect; inconclusive means small, poorly fitted or top-dose-only effect; inactive means no such curve, though single readings can be large or run the other way. Potencies of inconclusive entries are doubtful fits and often do not repeat.
# Assay: A quantitative high throughput screen for small molecules that induce DNA re-replication in SW480 colon adenocarcinoma cells. Further: nearly all actives have a fitted effect of over 55% in size. On re-replication activation: % of control where 0% means no effect.
# Conditions: Hoechst DNA content imaging, 48 h; re-replication activation: at 46.1 µM (top of the series) unless noted
# Method in brief: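 SW480 cells exposed to compounds for 48 hr at 37 C, 5% CO2, then Hoechst-stained 40 min. Nuclear DNA content imaged by fluorescence scanning (405 nm excitation, 500-530 nm emission); re-replication scored as increased high-intensity nuclei.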
# Potency means the concentration at half of the fitted maximal effect.
Compound,Potency,re-replication activation
O=C(O)c1cccc(CN2C(=O)S/C(=C/c3ccccc3[N+](=O)[O-])C2=O)c1,"inconclusive: 18.4 µM [activator, single point]",–
CCc1cc2cc(C(=O)Nc3ccc(C)cc3)sc2s1,"inconclusive: 25.9 µM [activator, partial curve, poor fit]",–
OC(COCCC12CC3CC(CC(C3)C1)C2)CN1CCCC1 (stereo not given),"inconclusive: 18.4 µM [activator, single point]",–
Cc1ccc(C)c(N2CCN(C(=O)c3ccc(CS(=O)(=O)c4ccccc4C)o3)CC2)c1,"inconclusive: 20.6 µM [activator, single point]",–
O=C(NC(C1CC1)C1CC1)C1CCC(=O)N(CCCN2CCCC2=O)C1 (stereo not given),–,inconclusive: -35.9% [activator]
O=C(c1ccc(Cl)c([N+](=O)[O-])c1)N1CCN(c2ccccn2)CC1,–,inactive: 2.9%
O=[N+]([O-])c1cccc(-c2cc(-c3cc(Br)ccc3O)[nH]n2)c1,"inconclusive: 18.4 µM [activator, single point]",–
O=C(NCc1ccc(Cl)cc1)C1CCN(S(=O)(=O)c2ccc(F)cc2)CC1,"inconclusive: 4.11 µM [activator, single point]",–
O=C(c1ccccc1)c1ccccc1C(=O)c1ccccc1,"inactive and inconclusive: 20.6 µM [activator, single point]",–
CCC1(C)Cc2nc3[nH]c(=S)n(-c4ccccc4)c(=O)c3cc2CO1 (stereo not given),"inconclusive: 29.1 µM [activator, single point]",–
CCn1cc(CN2CCCC(C(=O)Nc3cccc(-c4cc5ccccc5[nH]4)c3)C2)c(C)n1 (stereo not given),"inconclusive: 29.1 µM [activator, single point]",–
S=C1NC[C@H](Cc2ccccc2)N1CC1CCN(CCCCc2ccccc2)CC1,"inconclusive: 18.4 µM [activator, single point]",–
OC(CCCC(O)c1ccccc1)c1ccccc1 (stereo not given),–,inactive: -0.794%
Cn1nc(C(F)(F)F)cc1C(=O)NC1CCCCCC1,–,inactive: -2.31%
COc1ccc(C2C(C(=O)OC3CCCCC3)=C(C)Nc3nnnn32)c(OC)c1OC (stereo not given),–,inconclusive: 242% [activator]
Cc1ccc(-n2ncc(C(=O)Nc3ccc(Cl)cc3)c2C2CCNCC2)cc1C,–,inactive: 5.43%
Nc1[nH]c2cc([N+](=O)[O-])ccc2c1-c1ccccn1,"inconclusive: 4.61 µM [activator, partial curve]",–
COc1ccccc1C(=O)Nc1ccc(OCC(=O)N2CC(C)CC(C)C2)cc1 (stereo not given),–,inactive: 7.28%
CCSc1ncc(Cl)c(C(=O)Nc2ccccc2F)n1,–,inactive: -44.2%
C[C@H](OC(=O)N1CCN(C(c2ccccc2)c2ccccc2)CC1)[C@@H]1O[C@@]2(C)CCC[C@H]1O2,"inconclusive: 32.6 µM [activator, partial curve, poor fit]",–
N/C(=N\NS(=O)(=O)c1ccccc1C(F)(F)F)c1ccccn1,"inconclusive: 29.1 µM [activator, single point]",–
COc1ccccc1CN1CCCC(C(=O)N(C)Cc2ccccc2)C1 (stereo not given),–,inactive: 3.98%
COc1ccc(N2CCN(C(=S)Nc3cccc(OC)c3)CC2)cc1,–,inactive: 5.02%
CN1CCC(N(C)S(=O)(=O)c2ccc(NC(=O)COc3ccc(F)cc3)cc2)CC1,"inconclusive: 2.06 µM [activator, single point]",–

Compound,Potency,re-replication activation
CCCn1c(N)c(C(=O)CSc2nnc(-c3cccnc3)n2-c2ccc(C)cc2C)c(=O)[nH]c1=O,"inconclusive: 10.3 µM [activator, single point]",–
COc1ccc(CCN2CC(C(=O)Nc3ccccc3F)CC2=O)cc1OC (stereo not given),"inconclusive: 11.6 µM [activator, partial curve, poor fit]",–
Cn1c(SCC(=O)N/N=C/c2ccco2)nc2ccccc21,–,inactive: -10.2%
Cc1ccc(C(=O)Nc2nnc(-c3ccco3)o2)cc1,"inconclusive: 29.1 µM [activator, single point]",–
CCCCCOc1ccc(OC(=O)c2ccncc2)cc1,"inconclusive: 32.6 µM [activator, single point]",–
N#Cc1cc([N+](=O)[O-])ccc1NC(=O)COC(=O)c1cnccn1,–,inactive: -0.55%
CCCCC(=O)N/N=C/c1ccc(Sc2cccc3cccnc23)o1,–,inactive: -0.848%
O=C(N/N=C/c1ccccn1)c1cc([N+](=O)[O-])cc([N+](=O)[O-])c1,"inconclusive: 18.4 µM [activator, single point]",–
CCOC(=O)N1CCN(S(=O)(=O)c2ccc(C(=O)N(CCCN(C)C)c3nc4c(F)cc(F)cc4s3)cc2)CC1,"inconclusive: 13 µM [activator, single point]",–
CC1CCCN(C(=O)c2ccc3ncsc3c2)C1 (stereo not given),active: 3.66 µM,–
COc1cccc(/C=N/n2c(C)nc3ccccc3c2=O)c1O,"inconclusive: 18.4 µM [activator, single point]",–
Cc1ccc2nc(SCC(=O)Nc3cccnc3Cl)[nH]c2c1,–,inactive: -1.06%
CCc1nnc(NC(=O)CSc2nnc(-c3ccccc3OC)n2-c2ccc(C)cc2)s1,–,inactive: 3.41% [at 9.22 µM]
CCc1cccc(C)c1NC(=O)CSc1nnc(-c2cc3cc(Br)ccc3o2)n1CC,"inconclusive: 25.9 µM [activator, single point]",–
COc1ccc(C2Nc3ccccc3C(=O)N2NS(=O)(=O)c2ccccc2)cc1OC (stereo not given),"inconclusive: 32.6 µM [activator, partial curve, poor fit]",–
CCOc1ccccc1CN1CCNC(=O)C1CC(=O)NC1CCCCC1 (stereo not given),–,inactive: 9.04%
Nc1nc2nc(-c3cccs3)cc(C(F)(F)F)n2n1,"inconclusive: 29.1 µM [activator, single point]",–
C[C@@H]1CC=C[C@@H]2[C@H]1C(=O)N(Cc1ccccc1)[C@H]2c1ccccc1Br,"inconclusive: 6.51 µM [activator, single point]",–
N#Cc1ccccc1OCC(=O)OCC(=O)NCc1ccc2c(c1)OCO2,"inconclusive: 29.1 µM [activator, single point]",–
CC(C)(C)c1csc(NC(=O)c2ccc(Cl)s2)n1,"inconclusive: 29.1 µM [activator, partial curve, poor fit]",–
O=C(CCN1C(=O)/C(=C\c2ccccc2Cl)SC1=S)N1CCN(c2ccccc2)CC1,–,inactive: -1.64%
CN(c1cnn(-c2ccccc2)c(=O)c1Cl)n1cccc1,"inconclusive: 0.082 µM [activator, full curve, poor fit]",–
COc1ccc(NC(=O)c2ccc(NC(=O)CN3CCN(c4ccc(O)cc4)CC3)cc2)cc1,"inconclusive: 29.1 µM [activator, single point]",–
Cc1cc(C(=O)Nc2sc(C)c(-c3ccc(F)cc3)c2C(N)=O)no1,"inconclusive: 29.1 µM [activator, single point]",–

# Looked up by compound from the list above:
Compound,Potency,re-replication activation
N#Cc1ccccc1OCC(=O)OCC(=O)NCc1ccc2c(c1)OCO2,"inconclusive: 29.1 µM [activator, single point]",–
Cc1ccc2nc(SCC(=O)Nc3cccnc3Cl)[nH]c2c1,–,inactive: -1.06%
CCc1cc2cc(C(=O)Nc3ccc(C)cc3)sc2s1,"inconclusive: 25.9 µM [activator, partial curve, poor fit]",–
C[C@@H]1CC=C[C@@H]2[C@H]1C(=O)N(Cc1ccccc1)[C@H]2c1ccccc1Br,"inconclusive: 6.51 µM [activator, single point]",–

# Single records, as listed above:
# COc1ccc(CCN2CC(C(=O)Nc3ccccc3F)CC2=O)cc1OC (stereo not given) is listed with Potency: inconclusive: 11.6 µM [activator, partial curve, poor fit]
# CC1CCCN(C(=O)c2ccc3ncsc3c2)C1 (stereo not given) is listed with Potency: active: 3.66 µM

# More records:

Compound,Potency,re-replication activation
CSc1ccc(C2C(C#N)=C(N)N(c3ccccc3)C3=C2C(=O)CCC3)cc1 (stereo not given),"inconclusive: 29.1 µM [activator, single point]",–
Cc1cc(CNC(=O)c2cccnc2Cl)c2ccccc2n1,"inconclusive: 3.16 µM [activator, full curve, poor fit]",–
Cc1nc(C)n(C(C)CNS(=O)(=O)c2ccc(Cl)cc2)n1 (stereo not given),–,inactive: 12.9%
Cc1nc(C)n(CC(O)COc2ccc3cc(Br)ccc3c2)n1 (stereo not given),–,inactive: 3.14%
O=C(CCC(=O)Nc1cccc([N+](=O)[O-])c1)N/N=C/c1cccs1,"inconclusive: 32.6 µM [activator, single point]",–
N#Cc1c(N)n(-c2ccc(C(=O)O)cc2)c2nc3ccccc3nc12,"inconclusive: 23.1 µM [activator, single point]",–
O=C(Cc1ccccc1)N/N=C/c1ccccc1OCc1ccc(Cl)cc1,"inconclusive: 18.4 µM [activator, single point]",–
CCn1c(C)nc2cc(C(=O)NN=Cc3ccc([N+](=O)[O-])cc3)ccc21,–,inactive: -5.6%
COC(=O)/C(C#N)=C/c1c(-c2ccccc2)nc2n1CCS2,–,inactive: 2.3%
Cn1ncc(Cl)c1C(=O)NCc1ccc(Cl)cc1,"inconclusive: 13 µM [activator, partial curve, poor fit]",–
COc1cccc(/C=N\NC(C)=O)c1OC/C=C/c1ccccc1,"inconclusive: 29.1 µM [activator, single point]",–
COc1cccc(CN(C)C(=O)c2cccc(S(=O)(=O)Nc3cccc(C)c3)c2)c1OC,–,inactive: 1.27%
Cc1ccc(C(=O)N/C(=C\c2cccnc2)C(=O)N2CCCC2)cc1,"inconclusive: 0.112 µM [activator, full curve, poor fit]",–
C=CCn1c(N)cc(=O)nc1SCC(=O)Nc1ccc(C(=O)OCC)cc1,–,inactive: -3.56%
CC(NC(=O)NC12CC3CC(CC(C3)C1)C2)c1ccc2c(c1)OCO2 (stereo not given),"inconclusive: 29.1 µM [activator, partial curve, poor fit]",–
Cc1cccn2c(=O)c3cc(C(=O)N4c5ccccc5CC4C)n(C)c3nc12 (stereo not given),–,inactive: -1.98%
COc1ccc(C2CC(O)(c3ccccc3)Oc3c(C)ccc(C)c32)cc1 (stereo not given),"inconclusive: 32.6 µM [activator, partial curve, poor fit]",–
CC(C)COc1ccc(-c2nnc(-c3ccco3)o2)cc1,"inconclusive: 6.51 µM [activator, single point]",–
Cc1ccc(-n2nnnc2SCn2nnc3ccccc3c2=O)c(C)c1,–,inactive: -1.37%
COc1ccccc1NC(=O)CCc1nc2ccccc2s1,–,inactive: 1.53%
Cc1ccc(CC(=O)NC2CCN(Cc3ccccc3)CC2)cc1,"inconclusive: 29.1 µM [activator, partial curve, poor fit]",–
OCCCNc1nccc(-c2cc(Nc3cccc(Cl)c3)ncn2)n1,"inconclusive: 0.651 µM [activator, partial curve, poor fit]",–
